Test results taken from publication PMC9506174.
Results are given in words; binding and its absence hold for the method and conditions named. Binding seen in cells or lysates may run through a third protein. A yes stands for co-enrichment or nearness to the bait. Other partners may have been found.

By UniProt entry, the sequences of proteins in these tests, tags left out. Residues count along the entry.
UniProt O00206, residues 24-839: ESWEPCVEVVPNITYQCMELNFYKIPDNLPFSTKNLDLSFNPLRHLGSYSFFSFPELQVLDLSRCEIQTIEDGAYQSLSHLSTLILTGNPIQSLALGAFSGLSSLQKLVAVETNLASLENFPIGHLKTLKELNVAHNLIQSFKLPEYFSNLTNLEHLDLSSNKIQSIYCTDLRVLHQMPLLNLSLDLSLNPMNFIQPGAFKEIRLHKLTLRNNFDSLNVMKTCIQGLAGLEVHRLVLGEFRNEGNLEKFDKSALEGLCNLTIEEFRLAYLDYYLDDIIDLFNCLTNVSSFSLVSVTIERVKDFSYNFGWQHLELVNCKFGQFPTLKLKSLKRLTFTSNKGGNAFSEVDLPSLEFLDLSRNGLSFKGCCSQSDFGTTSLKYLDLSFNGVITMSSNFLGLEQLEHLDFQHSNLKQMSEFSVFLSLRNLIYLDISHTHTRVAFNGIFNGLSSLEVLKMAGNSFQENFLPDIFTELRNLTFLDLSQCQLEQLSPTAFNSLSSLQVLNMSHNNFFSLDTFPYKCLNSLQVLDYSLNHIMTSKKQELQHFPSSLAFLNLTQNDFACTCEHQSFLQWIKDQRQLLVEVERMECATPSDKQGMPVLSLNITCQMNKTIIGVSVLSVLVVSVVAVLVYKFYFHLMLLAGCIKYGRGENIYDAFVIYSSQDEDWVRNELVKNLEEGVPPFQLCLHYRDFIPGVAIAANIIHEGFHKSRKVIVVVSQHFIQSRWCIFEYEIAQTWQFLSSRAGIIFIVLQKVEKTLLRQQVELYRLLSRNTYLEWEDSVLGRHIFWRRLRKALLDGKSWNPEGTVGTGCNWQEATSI
UniProt P08670: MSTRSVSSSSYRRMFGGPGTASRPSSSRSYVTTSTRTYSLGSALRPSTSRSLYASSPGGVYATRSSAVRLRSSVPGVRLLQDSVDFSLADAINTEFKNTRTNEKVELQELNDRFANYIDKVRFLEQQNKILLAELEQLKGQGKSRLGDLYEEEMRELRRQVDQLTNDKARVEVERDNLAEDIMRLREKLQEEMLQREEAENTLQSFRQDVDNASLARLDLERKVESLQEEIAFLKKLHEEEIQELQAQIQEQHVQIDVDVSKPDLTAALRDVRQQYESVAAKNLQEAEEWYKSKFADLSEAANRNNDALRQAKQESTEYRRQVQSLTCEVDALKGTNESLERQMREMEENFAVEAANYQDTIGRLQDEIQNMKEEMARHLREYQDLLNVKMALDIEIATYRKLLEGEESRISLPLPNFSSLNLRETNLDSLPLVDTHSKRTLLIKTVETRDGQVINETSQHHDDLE

Biological target: HA-tagged human Toll-like receptor 4 (human) (UniProt O00206)
Assay: affinity purification with mass spectrometry; anti-HA magnetic beads on lysates of HA-TLR4-HEK293 cells (control, 1 µg/mL LPS 1 h, 10 µM simvastatin 24 h, statin then LPS; with or without ETD cross-linker), overnight at 4 °C; trypsin digestion, nano-LC-MS/MS, spectral counting

binding: binds
Substance: vimentin (from UniProt P08670 1-466)
